Laboratory results taken from patent US20220305128.

Key:
[1] = system: NF-kB (endogenous, A549 cells) (Homo sapiens); assay: activity in cells; details: 5' monophosphate, 3' hydroxyl; A549 MTT, 1 pmol RNA transfected; 101% day 1; indirect readout; protein in cells
[2] = biological target: T1, NF-kB p50 protein (NFKB1) (UniProt P19838); assay: pull-down; details: 5-azido-C3-U at all U of SEQ 2 component, conjugated to thalidomide by click chemistry; p50 co-recovered with GST-Cereblon through conjugated circRNA (2 nM RNA, 10 nM proteins); 25 mM Tris pH 7.0, 100 mM NaCl, 1 mM MgCl2, 1 mM EDTA; purified recombinant protein
T1 sequence (looked up, limits assumed): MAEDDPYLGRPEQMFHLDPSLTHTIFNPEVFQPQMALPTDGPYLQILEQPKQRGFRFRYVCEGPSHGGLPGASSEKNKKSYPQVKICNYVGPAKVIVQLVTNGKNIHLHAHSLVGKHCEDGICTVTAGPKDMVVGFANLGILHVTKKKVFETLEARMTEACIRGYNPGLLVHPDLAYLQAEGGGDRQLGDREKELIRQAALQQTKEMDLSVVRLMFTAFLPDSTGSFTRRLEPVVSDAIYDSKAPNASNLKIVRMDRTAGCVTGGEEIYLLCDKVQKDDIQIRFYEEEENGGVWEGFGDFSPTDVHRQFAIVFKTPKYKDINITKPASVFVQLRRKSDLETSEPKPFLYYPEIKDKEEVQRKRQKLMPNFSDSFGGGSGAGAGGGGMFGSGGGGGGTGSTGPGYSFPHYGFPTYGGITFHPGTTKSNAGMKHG

Sequence | functional effect of the aptamer (% viability day 2) [1] | binding result [2]
AAAAAAAAAAGAUCUUGAAACUGUUUUAAGGUUGGCCGAUCUUAAAAAA [NF-kB aptamer, linear RNA] | 97 | –
GGAAUAGCCGAAAAACAAAAAGAUCUUGAAACUGUUUUAAGGUUGGCCGAUCAAAAACAAAACGGCUAUUGGAACGGCAACCGGGCAAACAAACAAUCAAUCAAUCAAUCAAUCAAUCAAUCAAUCAAUCAAUCAAACAAACAAAAGACCGAGAGCCACC | – | binds

For at least one entry, the source does not settle the construct or the ends of the probe. For some assays here: Where a protein sequence is shown, tags need not be part of it.
